Patent publication US6936690 (Takeda / Millennium, dated 2005)
Results are given in words; binding and its absence hold for the method and conditions named. In cells and extracts the contact can be indirect. Some entries that bind do so weakly or less than the wild type. For part of these data: Sequences can lack the tags named with a protein.

The chains behind the UniProt entries cited, without tags or fusion partners. Where a name states a change or a piece, a line headed by the entry shows the natural chain unless it says otherwise.
UniProt Q9BXL6: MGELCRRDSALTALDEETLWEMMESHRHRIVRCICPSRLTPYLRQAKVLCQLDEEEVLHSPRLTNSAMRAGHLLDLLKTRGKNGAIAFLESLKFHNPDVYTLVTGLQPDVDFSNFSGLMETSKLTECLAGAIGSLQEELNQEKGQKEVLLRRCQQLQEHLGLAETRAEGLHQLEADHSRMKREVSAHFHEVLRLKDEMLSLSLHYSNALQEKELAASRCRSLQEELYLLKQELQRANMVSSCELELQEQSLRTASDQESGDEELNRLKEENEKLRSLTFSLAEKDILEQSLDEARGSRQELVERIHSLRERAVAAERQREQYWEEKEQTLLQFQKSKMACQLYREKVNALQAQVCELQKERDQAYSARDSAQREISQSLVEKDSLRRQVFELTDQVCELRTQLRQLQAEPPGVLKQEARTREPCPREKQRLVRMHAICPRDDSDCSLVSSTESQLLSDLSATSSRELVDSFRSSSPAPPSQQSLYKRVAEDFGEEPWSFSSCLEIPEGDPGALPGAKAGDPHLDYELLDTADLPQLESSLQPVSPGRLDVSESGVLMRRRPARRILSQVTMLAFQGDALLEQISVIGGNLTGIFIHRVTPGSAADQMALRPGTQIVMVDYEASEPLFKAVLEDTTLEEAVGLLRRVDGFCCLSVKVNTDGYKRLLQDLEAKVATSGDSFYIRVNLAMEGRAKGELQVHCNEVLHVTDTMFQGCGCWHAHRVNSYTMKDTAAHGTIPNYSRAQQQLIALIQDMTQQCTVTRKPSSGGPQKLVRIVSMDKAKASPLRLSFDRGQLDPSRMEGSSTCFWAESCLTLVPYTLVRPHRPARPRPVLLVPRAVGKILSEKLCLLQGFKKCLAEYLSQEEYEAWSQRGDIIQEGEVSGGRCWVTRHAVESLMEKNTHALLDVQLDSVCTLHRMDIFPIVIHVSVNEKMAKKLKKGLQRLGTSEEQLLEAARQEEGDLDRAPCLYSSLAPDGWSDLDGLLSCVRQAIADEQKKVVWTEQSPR

Columns and labels:
[1] = target: T1, GST-Bcl-10 wild type (UniProt O95999); assay: GST pull-down on glutathione-sepharose, autoradiography
T1 sequence (looked up): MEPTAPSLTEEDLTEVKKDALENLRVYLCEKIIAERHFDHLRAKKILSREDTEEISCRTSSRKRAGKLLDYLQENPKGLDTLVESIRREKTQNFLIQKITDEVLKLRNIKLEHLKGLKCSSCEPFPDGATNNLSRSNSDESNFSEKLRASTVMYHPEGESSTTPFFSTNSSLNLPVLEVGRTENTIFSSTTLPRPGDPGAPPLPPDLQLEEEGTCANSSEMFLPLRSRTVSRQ

[2] = target: T2, endogenous Bcl-10 of 293T cells (UniProt O95999); assay: co-immunoprecipitation from 293T lysate with Bcl-10 monoclonal antibody, anti-Myc immunoblot
T2 sequence (looked up): T1 sequence (looked up)

[3] = target: T2, endogenous Bcl-10 of 293T cells; assay: co-immunoprecipitation from 293T cells, anti-Myc immunoblot

binding [1] | binding [2] | binding [3] | Substance
binds |  |  | CARD-14 protein labeled with 35S-methionine (from UniProt Q9BXL6 1-1004)
 | binds | binds | Myc-tagged CARD-14 (full-length CARD-14 with C-terminal Myc epitopes, pCMV-Tag 5A) (from UniProt Q9BXL6 1-1004)
